Earlier results as cited in patent US10932484B2, “Inhibitory activity of acetogenins against Listeria monocytogenes” (INSTITUTO TECHNOLOGICO Y DE ESTUDIOS SUPERIORES DE MONTERREY, priority 2016, dated 2021).
Some results were stated once for a whole list of compounds, not compound by compound. For at least one compound, name, drawing or mass did not settle the structure.

Tested on: L. monocytogenes strain Scott A
Conditions: in food matrices; cited from earlier work

| Compound | MBC |
| --- | --- |
| CCCCCCCCCCCC(=O)O [C12:0] | 10-20 ppm |
| CCCCCCCCCCCC(=O)OCC(O)CO (centres unmarked) [monolaurin] | 10-20 ppm |
